According to paper doi:10.1101/794842:
Read-outs that look alike come from different tables or passages of the source. No constants are given. Whether binding was seen depends on the method and setting. Some results given as binding are weak or reduced against the parent protein; the word gives no strength.

Chains of the proteins cited; added tags and fusions are not shown. Residues count along the entry.
UniProt Q9Y2L5, residues 1002-1063: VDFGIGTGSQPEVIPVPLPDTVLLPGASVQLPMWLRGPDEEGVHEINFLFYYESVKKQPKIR

Legend:
Assay in all cases: two-hybrid
[1] = molecular target: T1, C terminus of human TMEM131 (yeast two-hybrid bait) (human) (UniProt Q92545)
T1 sequence: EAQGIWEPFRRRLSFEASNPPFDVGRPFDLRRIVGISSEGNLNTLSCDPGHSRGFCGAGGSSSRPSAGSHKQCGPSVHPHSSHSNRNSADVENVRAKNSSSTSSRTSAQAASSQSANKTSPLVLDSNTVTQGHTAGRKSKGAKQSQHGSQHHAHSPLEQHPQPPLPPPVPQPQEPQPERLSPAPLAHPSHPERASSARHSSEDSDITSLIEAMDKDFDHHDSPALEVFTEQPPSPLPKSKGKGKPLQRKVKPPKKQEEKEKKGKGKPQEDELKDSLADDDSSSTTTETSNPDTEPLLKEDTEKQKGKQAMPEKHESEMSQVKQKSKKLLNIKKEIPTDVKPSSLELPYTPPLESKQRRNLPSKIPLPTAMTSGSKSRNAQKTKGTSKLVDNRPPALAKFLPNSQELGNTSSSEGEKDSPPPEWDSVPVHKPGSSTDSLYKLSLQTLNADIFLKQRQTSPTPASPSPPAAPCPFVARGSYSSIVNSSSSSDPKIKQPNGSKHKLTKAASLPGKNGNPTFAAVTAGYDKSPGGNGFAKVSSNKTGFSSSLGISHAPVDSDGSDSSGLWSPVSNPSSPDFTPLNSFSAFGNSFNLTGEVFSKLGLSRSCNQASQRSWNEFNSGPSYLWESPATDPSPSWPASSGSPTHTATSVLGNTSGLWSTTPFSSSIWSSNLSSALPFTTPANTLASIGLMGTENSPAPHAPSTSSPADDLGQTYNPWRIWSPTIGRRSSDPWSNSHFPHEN

[2] = molecular target: T2, TMEM131 Ct with the very C-terminal end deleted (1741-1883 a.a.) (human) (UniProt Q92545)
T2 sequence: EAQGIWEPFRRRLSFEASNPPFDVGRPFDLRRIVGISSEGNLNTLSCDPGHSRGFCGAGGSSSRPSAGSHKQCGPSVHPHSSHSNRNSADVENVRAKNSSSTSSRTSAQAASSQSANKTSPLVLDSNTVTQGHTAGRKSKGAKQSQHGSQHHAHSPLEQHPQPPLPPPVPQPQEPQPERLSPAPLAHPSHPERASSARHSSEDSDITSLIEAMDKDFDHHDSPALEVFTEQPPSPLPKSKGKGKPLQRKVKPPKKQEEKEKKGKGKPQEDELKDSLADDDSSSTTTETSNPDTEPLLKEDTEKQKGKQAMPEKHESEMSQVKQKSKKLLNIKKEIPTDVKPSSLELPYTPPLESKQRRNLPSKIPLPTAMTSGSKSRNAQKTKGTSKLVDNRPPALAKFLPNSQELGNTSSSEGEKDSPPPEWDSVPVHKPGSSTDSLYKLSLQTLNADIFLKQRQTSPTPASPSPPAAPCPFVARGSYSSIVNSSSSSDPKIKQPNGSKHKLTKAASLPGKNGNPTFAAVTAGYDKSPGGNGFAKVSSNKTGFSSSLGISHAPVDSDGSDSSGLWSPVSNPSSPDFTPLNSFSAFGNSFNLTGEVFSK

[3] = molecular target: T1, C terminus of human TMEM131 (yeast two-hybrid bait) (human); remark: listed apart in the source

binding [1]: binds
binding [2]: no binding
binding [3]: binds
Substance: TRAPPC8 C-terminal region, prey cDNA clone a.a. 1002-1063 (from UniProt Q9Y2L5 1002-1063) (domain or fragment)
